# Experimental data reported in US10766857B2, “Compound having BLT inhibitory activity and composition, for preventing or treating inflammatory diseases, comprising same as active ingredient” (DONGGUK UNIVERSITY INDUSTRY-ACADEMIC COOPERATION FOUNDATION, priority 2015, dated 2020).
# For at least one compound, name, drawing or mass did not settle the structure.
# Tested on: asthma-induced mice (OVA+LPS)
# Assay: OVA+LPS-induced severe asthma mice: AHR and cell influx
# Assay type: in vivo
# Details: 10 mg/kg, FIGS. 14A-14B
# Description: Mast cells play a pivotal role in the initial reaction to asthma, and when an allergen enters the body from the outside through an airway, the mast cells are activated, thereby secreting various cytokines (interleukin-4 and interleukin-13). Due to the cytokines, the influx of inflammatory cells, the generation of mucus and the airway contraction occur. The inventors used 7-week-old (18 to 20 g) female BALB/c mice provided by Orient (Seoungnam, Korea) for the experiment to confirm the antiasthma effect, and then the asthma was induced in the mice. […] On the 24th day of the initial sensitization, airway hyperresponsiveness (AHR) was detected, and on the 25th day, the mice were dissected to observe asthma phenotypes, for example, inflammatory cytokine IL-4 expression and the influx of inflammatory cells (neutrophils). […] On the 23rd day of the initial sensitization, AHR was detected, and on the 24th day, the mice were dissected to observe a severe asthma phenotype, for example, the influx of the inflammatory cells (neutrophils). […] The AHR was analyzed using an enhanced pause as the indicator of the asthma phenomenon. Bronchoalveolar lavage fluid cell counts were quantified by counting cells under an optical microscope (magnification, 200×). In each analysis, 4 fields were subjected to counting, each sample was analyzed twice, and the analysis was repeated three times.
compound,measurement,value
"CC(C)(O)c1ccccc1CC[C@@H](SCC1(CC(=O)O)CC1)c1cccc(/C=C/c2ccc3ccc(Cl)cc3n2)c1 [montelukast, reference compound]",neutrophils reduced,not reduced
